The record followed here is publication PMC5549762.

Sequences of proteins named here, by UniProt entry; tags and fusion partners are left off. A change or cut given only in a name is not applied to a line headed by its entry. Residues count along the entry.
UniProt Q9NKV0: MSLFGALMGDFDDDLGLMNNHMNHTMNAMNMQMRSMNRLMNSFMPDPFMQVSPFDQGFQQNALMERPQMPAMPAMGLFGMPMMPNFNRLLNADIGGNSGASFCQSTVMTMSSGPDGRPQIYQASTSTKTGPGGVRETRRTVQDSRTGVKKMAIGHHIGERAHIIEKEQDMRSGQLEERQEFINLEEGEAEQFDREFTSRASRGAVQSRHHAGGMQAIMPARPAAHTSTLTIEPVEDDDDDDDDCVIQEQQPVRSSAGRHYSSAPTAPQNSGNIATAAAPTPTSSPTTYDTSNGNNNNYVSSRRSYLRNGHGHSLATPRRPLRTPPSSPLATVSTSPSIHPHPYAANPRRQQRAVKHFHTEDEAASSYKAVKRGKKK
UniProt P29844, residues 19-656: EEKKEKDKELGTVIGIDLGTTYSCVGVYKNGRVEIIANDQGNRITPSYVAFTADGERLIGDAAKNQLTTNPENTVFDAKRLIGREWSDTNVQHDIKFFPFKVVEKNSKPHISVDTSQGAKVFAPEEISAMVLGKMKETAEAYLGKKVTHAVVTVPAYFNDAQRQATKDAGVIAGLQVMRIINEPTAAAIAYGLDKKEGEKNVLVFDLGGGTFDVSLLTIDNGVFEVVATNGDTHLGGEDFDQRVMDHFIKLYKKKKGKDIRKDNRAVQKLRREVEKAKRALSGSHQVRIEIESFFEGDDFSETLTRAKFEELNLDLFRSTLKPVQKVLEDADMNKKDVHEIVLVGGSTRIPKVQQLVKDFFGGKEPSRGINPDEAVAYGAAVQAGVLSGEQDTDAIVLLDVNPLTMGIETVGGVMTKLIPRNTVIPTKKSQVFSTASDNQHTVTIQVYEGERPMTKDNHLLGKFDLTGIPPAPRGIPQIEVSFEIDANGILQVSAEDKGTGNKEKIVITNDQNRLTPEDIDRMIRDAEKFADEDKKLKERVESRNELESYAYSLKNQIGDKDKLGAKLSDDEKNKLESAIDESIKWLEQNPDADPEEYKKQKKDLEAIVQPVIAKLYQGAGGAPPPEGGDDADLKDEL
UniProt P11147: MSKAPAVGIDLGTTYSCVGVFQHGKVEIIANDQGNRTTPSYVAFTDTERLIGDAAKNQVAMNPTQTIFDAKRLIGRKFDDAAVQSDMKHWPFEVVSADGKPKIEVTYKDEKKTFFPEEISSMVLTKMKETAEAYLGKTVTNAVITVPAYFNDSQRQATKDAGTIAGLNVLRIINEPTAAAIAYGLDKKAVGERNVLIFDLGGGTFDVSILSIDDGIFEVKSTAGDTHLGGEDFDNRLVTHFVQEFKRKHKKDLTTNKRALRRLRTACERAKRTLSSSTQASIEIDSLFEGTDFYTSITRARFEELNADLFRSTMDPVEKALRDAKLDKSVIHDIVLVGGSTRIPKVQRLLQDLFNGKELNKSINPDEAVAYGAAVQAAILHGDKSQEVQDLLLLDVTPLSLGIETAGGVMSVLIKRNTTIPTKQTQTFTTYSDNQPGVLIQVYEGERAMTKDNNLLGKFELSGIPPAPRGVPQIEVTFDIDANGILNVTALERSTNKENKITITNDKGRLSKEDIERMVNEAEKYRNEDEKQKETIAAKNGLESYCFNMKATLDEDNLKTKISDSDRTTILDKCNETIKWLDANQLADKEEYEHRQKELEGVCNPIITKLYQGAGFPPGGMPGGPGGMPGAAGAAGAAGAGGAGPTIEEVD

Results are given in words; binding and its absence hold for the method and conditions named. In cells and extracts the contact can be indirect. Here binding means that the protein was enriched with, or labelled near, the bait; the list need not be complete.

First the molecules themselves.
B1: Squid (RNA binding protein), endogenous (protein, UniProt Q08473 1-344)
chain: MAENKQVDTEINGEDFTKDVTADGPGSENGDAGAAGSTNGSSDNQSAASGQRDDDRKLFVGGLSWETTEKELRDHFGKYGEIESINVKTDPQTGRSRGFAFIVFTNTEAIDKVSAADEHIINSKKVDPKKAKARHGKIFVGGLTTEISDEEIKTYFGQFGNIVEVEMPFDKQKSQRKGFCFITFDSEQVVTDLLKTPKQKIAGKEVDVKRATPKPENQMMGGMRGGPRGGMRGGRGGYGGRGGYNNQWDGQGSYGGYGGGYGGYGAGGYGDYYAGGYYNGYDYGYDGYGYGGGFEGNGYGGGGGGNMGGGRGGPRGGGGPKGGGGFNGGKQRGGGGRQQRHQPY

The target in the assay is V5-tagged MLF (Myeloid Leukemia Factor), from pMT-MLF-V5-His (Drosophila) (UniProt Q9NKV0). In words: affinity purification with mass spectrometry; anti-V5 antibody coupled to sepharose (IP1) or magnetic (IP2) beads; 20 mg of proteins extracted in IP buffer (150 mM NaCl, 0.5% NP40, 50 mM Tris-HCl pH 8.0, 1 mM EGTA) from CuSO4-induced Kc167-pMT-MLF-V5 cells, parental Kc167 cells as control; nanoLC-MS/MS.
“Hsc70-3 (constitutively expressed Hsp70 chaperone), endogenous (from UniProt P29844 19-656)”: the binding entry is given as “binds”.
To “Hsc70-4 (constitutively expressed Hsp70 chaperone), endogenous (from UniProt P11147 1-651)” belongs “binds”; to B1, “binds”.
